Binding data for 1 molecule are collected here from CN110585430A.

Results are given in words; binding and its absence hold for the method and conditions named. Some results given as binding are weak or reduced against the parent protein; the word gives no strength.

Experiment [1] has as its target T1, 重组人白介素17A (recombinant human interleukin 17A) (human) (UniProt Q16552).
T1 sequence (looked up): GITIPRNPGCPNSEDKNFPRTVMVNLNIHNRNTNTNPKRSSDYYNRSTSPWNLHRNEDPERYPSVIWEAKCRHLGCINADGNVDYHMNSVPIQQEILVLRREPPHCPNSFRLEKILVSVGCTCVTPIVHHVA
Kind of experiment: ELISA, rh IL-17A coated on plate, HRP goat anti-human IgG-Fc detection; relative binding activity vs reference; samples stored at 5℃±3℃. (ELISA stands for enzyme-linked immunosorbent assay.)

Experiment [2] has as its target T1, 重组人白介素17A (recombinant human interleukin 17A) (human). In words: ELISA, rh IL-17A coated on plate, HRP goat anti-human IgG-Fc detection; relative binding activity vs reference; samples stored at 25℃±2℃.

B1: 人源化抗人IL-17A单克隆抗体 (humanized anti-human IL-17A monoclonal antibody; SEQ ID NO.: 7 and SEQ ID NO.: 8) (antibody, V domains shown)
VH: QIQLVQSGPELKKPGETVKISCKASEYIFTNYGMNWVKEAPGKAFKWMGWIDTNTGEPTYAEDFKGRFAFSLDSSATSAFLQISNLKDDDTGTYFCANYGWGYFDYWGQGTTLTVSS
VL: DVVMTQTPLSLPVSLRDQASISCISSQSLVHSNGYTYLHWYLQKPGQSPKLLIYKVSNRFSGVPDRFSGSGSGTDFTLKISRVEAADLGVYFCSQSTHVPYTFGGGTKLEIK
With B1, the binding entry in experiment [1] and in experiment [2] was “binds” throughout.
